Test results as given in doi:10.1101/2022.02.11.480038.
No constants are given. Whether binding was seen depends on the method and setting. In cells and extracts the contact can be indirect. Some results given as binding are weak or reduced against the parent protein; the word gives no strength.

The chains behind the UniProt entries cited, without tags or fusion partners. Where a name states a change or a piece, a line headed by the entry shows the natural chain unless it says otherwise. A line that says so, or that is headed by a name, gives the form on record, which may keep a tag or linker.
UniProt Q9Y6I9: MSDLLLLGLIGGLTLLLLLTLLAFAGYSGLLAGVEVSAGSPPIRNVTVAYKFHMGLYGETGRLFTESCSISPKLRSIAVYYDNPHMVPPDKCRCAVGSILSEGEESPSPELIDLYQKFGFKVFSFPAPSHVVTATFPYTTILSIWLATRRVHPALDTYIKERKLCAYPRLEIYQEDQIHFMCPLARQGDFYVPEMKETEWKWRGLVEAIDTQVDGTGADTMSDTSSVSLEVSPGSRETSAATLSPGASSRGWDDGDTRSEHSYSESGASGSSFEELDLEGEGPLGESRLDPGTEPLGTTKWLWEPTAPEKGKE
TEX264-FLAG core LIR mutant (LIR4A, FEEL/AAAA) (Q9Y6I9, form named): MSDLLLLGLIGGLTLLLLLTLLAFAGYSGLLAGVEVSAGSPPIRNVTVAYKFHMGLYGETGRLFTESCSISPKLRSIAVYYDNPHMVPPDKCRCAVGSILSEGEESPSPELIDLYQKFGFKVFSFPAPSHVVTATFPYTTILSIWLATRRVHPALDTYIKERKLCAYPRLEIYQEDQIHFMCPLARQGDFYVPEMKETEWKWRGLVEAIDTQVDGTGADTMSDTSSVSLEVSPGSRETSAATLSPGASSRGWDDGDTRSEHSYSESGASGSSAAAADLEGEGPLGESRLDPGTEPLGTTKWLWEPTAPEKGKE
UniProt O95166: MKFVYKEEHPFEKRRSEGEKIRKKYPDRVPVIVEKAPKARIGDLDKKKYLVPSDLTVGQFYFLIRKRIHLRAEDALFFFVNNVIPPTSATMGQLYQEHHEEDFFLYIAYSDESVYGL

Tests used:
Assay in all cases: co-IP
[1] = molecular target: TEX264^S266A-FLAG (human) (UniProt Q9Y6I9)
[2] = molecular target: TEX264^(S269D, S271D, S272D)-FLAG (human) (UniProt Q9Y6I9)
[3] = molecular target: TEX264^(S269E, S271E, S272E)-FLAG (human) (UniProt Q9Y6I9)
[4] = molecular target: TEX264^S269A-FLAG (human) (UniProt Q9Y6I9)
[5] = molecular target: TEX264-FLAG core LIR mutant (LIR4A, FEEL/AAAA) (human) (UniProt Q9Y6I9)
[6] = molecular target: TEX264^S272A-FLAG (human) (UniProt Q9Y6I9)
[7] = molecular target: TEX264^S271A-FLAG (human) (UniProt Q9Y6I9)
[8] = molecular target: FLAG-tagged TEX264 (TEX264-FLAG), wild type (human) (UniProt Q9Y6I9)
FLAG-GABARAP, wild type = FLAG-GABARAP, wild type (UniProt O95166)

binding [1] | binding [2] | binding [3] | binding [4] | binding [5] | binding [6] | binding [7] | binding [8] | binding (FLAG-GABARAP, wild type) | Substance
binds | binds | binds | binds weakly | no binding | no binding | no binding | binds |  | GABARAP (in HEK293T lysate) (from UniProt O95166 1-117)
 | binds | binds |  |  |  |  | binds |  | LC3A (in HEK293T lysate) (from UniProt Q9H492 1-121)
 |  |  |  |  |  |  |  | binds | TEX264 co-precipitated with FLAG-GABARAP (HEK293T lysate) (from UniProt Q9Y6I9 1-313)
